In US20200325218A1:
No constants are given. Whether binding was seen depends on the method and setting. Some results given as binding are weak or reduced against the parent protein; the word gives no strength.

Amino acid sequences for entries named in this document (tags omitted). A change or cut given only in a name is not applied to a line headed by its entry.
UniProt Q969D9: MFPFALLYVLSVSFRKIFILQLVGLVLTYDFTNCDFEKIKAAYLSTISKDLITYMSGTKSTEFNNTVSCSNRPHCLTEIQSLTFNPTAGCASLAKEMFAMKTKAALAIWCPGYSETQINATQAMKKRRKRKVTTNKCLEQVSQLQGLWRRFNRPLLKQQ

Molecular target: human TSLP (HEK) (human) (UniProt Q969D9)
Test: solution equilibrium titration (SET)

binding: binds
B1: anti-TSLP Fab1 (Fab, V domains shown)
VH: EVQLVESGGGLVKPGGSLRLSCAASGFTFSDYWMHWVRQAPGKGLEWVGHIKSKTDAGTTDYAAPVKGRFTISRDDSKNTLYLQMNSLKTEDTAVYYCAREIYYYAFDSWGQGTLVTVSS
VL: SYELTQPLSVSVALGQTARITCSGDNIGSKYVHWYQQKPGQAPVLVIYGDNERPSGIPERFSGSNSGNTATLTISRAQAGDEADYYCQAADWVDFYVFGGGTKLTVLG
